Values from PubChem BioAssay AID1259308 (NCATS, 2017)

Assay: 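Knock-downs that increase output of a recombinant reporter protein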 (primary screen)
System: human HEK293 embryonic kidney cells stably expressing firefly luciferase (HEK-CMV-Luc2-Hygro)
Reagent: single siRNA against human genes, 0.8 pmol siRNA per well
Timing: 72 h
Read-out: 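Luciferase light (ONE-Glo) measured on one replicate plate set and viability (CellTiter-Glo) on the other, scaled to a negative control siRNA, with robust z-scores and luciferase per cell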
Direction: total luciferase, z-score and total luciferase, % of control: higher = more reporter protein produced
Active means: 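An siRNA counts as active if its total luciferase robust z-score exceeds 3; genes with two or more such siRNAs out of three were retested with fresh siRNAs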
Calls: active = raised luciferase; inactive = no rise
Shown is an unselected part of about 59,000 reagents. About 1,510 of them (2.6%) were called active. 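Calls use total luciferase alone and ignore viability, so some active siRNAs may act by altering cell number.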 Reagents against one gene are numbered here. Further read-outs or replicates are left out here. No sequences are given here.

Against LINC00926 (GeneID 283663) #1, the entry reads total luciferase, z-score -0.343; total luciferase, % of control 75.1; inactive. After knock-down of LINC00926 (GeneID 283663) #2, the record shows total luciferase, z-score 1.43; total luciferase, % of control 110; inactive. For LINC00926 (GeneID 283663) #3, the entry reads total luciferase, z-score 2.05; total luciferase, % of control 123; inactive. After knock-down of FRA10AC1 (GeneID 118924) #1, the record shows total luciferase, z-score 0.56; total luciferase, % of control 93; inactive. FRA10AC1 (GeneID 118924) #2 gave total luciferase, z-score 1.23; total luciferase, % of control 106; inactive. With knock-down of FRA10AC1 (GeneID 118924) #3, the record shows total luciferase, z-score -0.0254; total luciferase, % of control 81.4; inactive.

In a second layout: entries from further up.
{"gene symbol": "LINC00926 (GeneID 283663)", "reagent no.": 2, "total luciferase, z-score": 1.43, "total luciferase, % of control": 110, "call": "inactive"}
{"gene symbol": "LINC00926 (GeneID 283663)", "reagent no.": 3, "total luciferase, z-score": 2.05, "total luciferase, % of control": 123, "call": "inactive"}

The listing continues.
Against USP37 (GeneID 57695) #1, the entry reads total luciferase, z-score -0.215; total luciferase, % of control 77.6; inactive. USP37 (GeneID 57695) #2 showed total luciferase, z-score 0.263; total luciferase, % of control 87.1; inactive. Against USP37 (GeneID 57695) #3 the deposit lists total luciferase, z-score -0.43; total luciferase, % of control 73.3; inactive. GPAT3 (GeneID 84803) #1 showed total luciferase, z-score -0.633; total luciferase, % of control 69.3; inactive. Depletion of GPAT3 (GeneID 84803) #2 resulted in: total luciferase, z-score -0.17; total luciferase, % of control 78.5; inactive. After knock-down of GPAT3 (GeneID 84803) #3 the results were total luciferase, z-score 0.852; total luciferase, % of control 98.8; inactive.
